{"source": "PubChem BioAssay AID1508588 (Peter MacCallum Cancer Centre, 2020)", "assay": "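Knock-downs boosting vemurafenib effects on melanoma cell growth or lactate release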 (primary screen)", "cells": "human WM266.4 melanoma cells (BRAF V600 mutant)", "reagents": "siRNA pool against human genes, 40 nM", "timing": "96 h from transfection to read-out", "treatment": "vemurafenib 300 nM (about IC25), added 48 h after transfection, for 48 h; comparison arm got DMSO vehicle only", "measurement": "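Cell gain (DAPI nuclei at end minus before drug, mean of two replicates) and medium lactate by absorbance per cell, both as ratio to non-targeting siRNA, also grouped into fold-change classes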", "reading the numbers": "cell gain with vemurafenib: higher = more cell gain than with non-targeting siRNA; lactate per cell with vemurafenib: higher = more lactate made per cell", "hit rule": "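Enhancement is called by pairing each knock-down's vehicle-arm and drug-arm fold-change classes for viability or glycolysis; which class combinations qualify is not given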", "calls": "active = enhances vemurafenib effect; inactive = no enhancement seen", "note": "In all, the deposit lists about 18,000 reagents; shown is a random part of them. 790 of all reagents (4.4%) count as active. 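Calls rest on a combination of fold-change classes in drug and vehicle arms, not all shown here.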"}
{"gene knocked down":"FNDC4","PubChem SID":"SID134318394","cell gain with vemurafenib":0.34,"lactate per cell with vemurafenib":1.7,"call":"inactive"}
{"gene knocked down":"MAP3K9","PubChem SID":"SID152152652","cell gain with vemurafenib":0.3,"lactate per cell with vemurafenib":0.78,"call":"inactive"}
{"gene knocked down":"MCMDC2","PubChem SID":"SID152152567","cell gain with vemurafenib":0.56,"lactate per cell with vemurafenib":1.49,"call":"inactive"}
{"gene knocked down":"XYLB","PubChem SID":"SID152153831","cell gain with vemurafenib":0.57,"lactate per cell with vemurafenib":1,"call":"inactive"}
{"gene knocked down":"PRMT8","PubChem SID":"SID152148918","cell gain with vemurafenib":0.71,"lactate per cell with vemurafenib":0.26,"call":"inactive"}
{"gene knocked down":"BACH2","PubChem SID":"SID134314501","cell gain with vemurafenib":0.42,"lactate per cell with vemurafenib":2.16,"call":"inactive"}
{"gene knocked down":"RARG","PubChem SID":"SID152152491","cell gain with vemurafenib":0.28,"lactate per cell with vemurafenib":1.29,"call":"inactive"}
{"gene knocked down":"REPS1","PubChem SID":"SID134318855","cell gain with vemurafenib":0.92,"lactate per cell with vemurafenib":0.9,"call":"inactive"}
{"gene knocked down":"AFP","PubChem SID":"SID134315559","cell gain with vemurafenib":0.15,"lactate per cell with vemurafenib":0.76,"call":"inactive"}
{"gene knocked down":"TMEM222","PubChem SID":"SID152154526","cell gain with vemurafenib":0.73,"lactate per cell with vemurafenib":1,"call":"inactive"}
{"gene knocked down":"SAMD8","PubChem SID":"SID134319917","cell gain with vemurafenib":0.7,"lactate per cell with vemurafenib":0.58,"call":"inactive"}
{"gene knocked down":"MIGA2","PubChem SID":"SID134321105","cell gain with vemurafenib":0.87,"lactate per cell with vemurafenib":1.54,"call":"inactive"}
{"gene knocked down":"CYP2B6","PubChem SID":"SID135622070","cell gain with vemurafenib":1.05,"lactate per cell with vemurafenib":0.4,"call":"inactive"}
{"gene knocked down":"HIBADH","PubChem SID":"SID152154916","cell gain with vemurafenib":-0.06,"lactate per cell with vemurafenib":0.74,"call":"inactive"}
{"gene knocked down":"LINC02870","PubChem SID":"SID135623535","cell gain with vemurafenib":0.44,"lactate per cell with vemurafenib":2.04,"call":"inactive"}
{"gene knocked down":"CIMIP2A","PubChem SID":"SID134329787","cell gain with vemurafenib":0.23,"lactate per cell with vemurafenib":1.61,"call":"inactive"}

An excerpt from above, reduced to “lactate per cell with vemurafenib”.
REPS1 [SID134318855] = 0.9
AFP [SID134315559] = 0.76
